Reference: patent US12576018B2, “Active agents for skin and hair care with sensory modifying properties” (SYMRISE AG, priority 2019, dated 2026)

Tested on: skin
Assay: Sensory assessment of 3-hydroxypropyl caprylate in o/w emulsion on forearm
Format: in vivo, human
Conditions: 1 wt.-% in o/w emulsion vs formulation A1

CCCCCCCC(=O)OCCCO [3-hydroxypropyl caprylate]
Absorption versus placebo (in words): better absorption | Soaping of the formulation versus placebo (in words): less soaping
